PubChem BioAssay AID686937 | Drosophila RNAi Screening Center | 2013
The deposit covers about 23,000 reagents; shown is an unselected part of those that have a named target and a result. 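Reduced-secretion tags in replicate 1 do not always agree with the z-scores; no criterion for assigning the tags was given.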 Reagents against one gene are numbered here. A plus sign joins genes that one reagent is predicted to hit. Not all columns of the deposit are shown. Reagent sequences are not shown. Not stated in the record: the amount of reagent.

Aim: 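Genes whose loss weakens secretory pathway function in fly cells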 (primary screen)
Cells: Drosophila S2 cells expressing secreted horseradish peroxidase
Knock-down reagent: long dsRNA against Drosophila genes
Duration: about 5.5 days (5 days dsRNA, then 12 h reporter induction)
Treatment: reporter expression induced after 5 days of dsRNA, read 12 h later; inducer not stated
Measurement: 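Chemiluminescent measurement of peroxidase in the medium 12 h after reporter induction, following 5 days of dsRNA, given as a z-score per plate; higher means more secretion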
Scale: z-score: higher = more reporter secreted into medium

z-score, replicate 1, by gene knocked down and reagent
ATPsyndelta: #1 0.17
Prosalpha3: #1 -1.92
robl: #1 0.57
tgy: #1 0.27
prel: #1 0.33
CG14718: #1 0.58
CG9154: #1 0.26
CG32109: #1 0.28
dikar: #1 0.31; #2 -0.67
Rrp5: #1 0
CG5757: #1 0.34
Fak: #1 0.11
POLDIP2: #1 0.4
CG15140: #1 -0.03
crb: #1 0.44
CG8407: #1 0.21
CG5149: #1 -3.8
GstZ1: #1 -0.23
CG13116: #1 -0.64; #2 -0.21
CG2852: #1 0.37
CG43861: #1 0.1; #2 0.02
sca: #1 -0.2
CG2127: #1 0.31
vih: #1 -0.33
Cnb: #1 0.19
CG14204: #1 -0.78
eIF3f1: #1 -2.63
CG1090: #1 0.13; #2 -0.51
Trpm: #1 0.35; #2 0.09
CG3588: #1 0.33
CG14642: #1 0.21
Ir75b: #1 0.3
CG18179: #1 0.2
Sptr: #1 0.35
CG3565: #1 0.25
Kr-h1: #1 -0.95; #2 -0.21
CG40005 (retired record) + cta: #1 0.61
Blos2: #1 0.4
tei: #1 0.43
Cpn: #1 0.31
CG10802: #1 0.2
Pde8: #1 0.15
beat-Ic: #1 0.33; #2 -0.71
CG14671: #1 0.48
Cdep: #1 0.27; #2 0.21; #3 -1.5
CG6933: #1 0.07
CG8833: #1 0.21

Single entries from above.
dikar #2, z-score, replicate 1: -0.67
Value for CG13116 #2 under “z-score, replicate 1”: -0.21
For “z-score, replicate 1”, Fak reads 0.11
CG6933, z-score, replicate 1 → 0.07
